No constants are given. Whether binding was seen depends on the method and setting. Some binding calls cover weakened binding; strength is not graded here.
Columns and labels:
[1] = target: Murine strep-tagged tenascin-C (murine) (UniProt Q80YX1); test: negative staining transmission electron microscopy; TNC (20 nmol/L) incubated with a 3 molar excess of CCL2 labelled with 5 nm colloidal gold, 1 h at 37 °C in TBS pH 7.4; gold particles counted along the TNC monomer or hexamer; both purified
[2] = target: Murine strep-tagged tenascin-C (murine) (UniProt Q80YX1); test: condition: only TNC pre-incubated with a 100x molar excess of heparin; negative staining transmission electron microscopy; as a2, but TNC pre-incubated with molar excesses of heparin (TNC:heparin = 1:0.1, 1:1, 1:10, 1:100) for 1 h at 37 °C; both purified

Chains of the proteins cited; added tags and fusions are not shown. Residues count along the entry.
UniProt Q80YX1, residues 23-2110: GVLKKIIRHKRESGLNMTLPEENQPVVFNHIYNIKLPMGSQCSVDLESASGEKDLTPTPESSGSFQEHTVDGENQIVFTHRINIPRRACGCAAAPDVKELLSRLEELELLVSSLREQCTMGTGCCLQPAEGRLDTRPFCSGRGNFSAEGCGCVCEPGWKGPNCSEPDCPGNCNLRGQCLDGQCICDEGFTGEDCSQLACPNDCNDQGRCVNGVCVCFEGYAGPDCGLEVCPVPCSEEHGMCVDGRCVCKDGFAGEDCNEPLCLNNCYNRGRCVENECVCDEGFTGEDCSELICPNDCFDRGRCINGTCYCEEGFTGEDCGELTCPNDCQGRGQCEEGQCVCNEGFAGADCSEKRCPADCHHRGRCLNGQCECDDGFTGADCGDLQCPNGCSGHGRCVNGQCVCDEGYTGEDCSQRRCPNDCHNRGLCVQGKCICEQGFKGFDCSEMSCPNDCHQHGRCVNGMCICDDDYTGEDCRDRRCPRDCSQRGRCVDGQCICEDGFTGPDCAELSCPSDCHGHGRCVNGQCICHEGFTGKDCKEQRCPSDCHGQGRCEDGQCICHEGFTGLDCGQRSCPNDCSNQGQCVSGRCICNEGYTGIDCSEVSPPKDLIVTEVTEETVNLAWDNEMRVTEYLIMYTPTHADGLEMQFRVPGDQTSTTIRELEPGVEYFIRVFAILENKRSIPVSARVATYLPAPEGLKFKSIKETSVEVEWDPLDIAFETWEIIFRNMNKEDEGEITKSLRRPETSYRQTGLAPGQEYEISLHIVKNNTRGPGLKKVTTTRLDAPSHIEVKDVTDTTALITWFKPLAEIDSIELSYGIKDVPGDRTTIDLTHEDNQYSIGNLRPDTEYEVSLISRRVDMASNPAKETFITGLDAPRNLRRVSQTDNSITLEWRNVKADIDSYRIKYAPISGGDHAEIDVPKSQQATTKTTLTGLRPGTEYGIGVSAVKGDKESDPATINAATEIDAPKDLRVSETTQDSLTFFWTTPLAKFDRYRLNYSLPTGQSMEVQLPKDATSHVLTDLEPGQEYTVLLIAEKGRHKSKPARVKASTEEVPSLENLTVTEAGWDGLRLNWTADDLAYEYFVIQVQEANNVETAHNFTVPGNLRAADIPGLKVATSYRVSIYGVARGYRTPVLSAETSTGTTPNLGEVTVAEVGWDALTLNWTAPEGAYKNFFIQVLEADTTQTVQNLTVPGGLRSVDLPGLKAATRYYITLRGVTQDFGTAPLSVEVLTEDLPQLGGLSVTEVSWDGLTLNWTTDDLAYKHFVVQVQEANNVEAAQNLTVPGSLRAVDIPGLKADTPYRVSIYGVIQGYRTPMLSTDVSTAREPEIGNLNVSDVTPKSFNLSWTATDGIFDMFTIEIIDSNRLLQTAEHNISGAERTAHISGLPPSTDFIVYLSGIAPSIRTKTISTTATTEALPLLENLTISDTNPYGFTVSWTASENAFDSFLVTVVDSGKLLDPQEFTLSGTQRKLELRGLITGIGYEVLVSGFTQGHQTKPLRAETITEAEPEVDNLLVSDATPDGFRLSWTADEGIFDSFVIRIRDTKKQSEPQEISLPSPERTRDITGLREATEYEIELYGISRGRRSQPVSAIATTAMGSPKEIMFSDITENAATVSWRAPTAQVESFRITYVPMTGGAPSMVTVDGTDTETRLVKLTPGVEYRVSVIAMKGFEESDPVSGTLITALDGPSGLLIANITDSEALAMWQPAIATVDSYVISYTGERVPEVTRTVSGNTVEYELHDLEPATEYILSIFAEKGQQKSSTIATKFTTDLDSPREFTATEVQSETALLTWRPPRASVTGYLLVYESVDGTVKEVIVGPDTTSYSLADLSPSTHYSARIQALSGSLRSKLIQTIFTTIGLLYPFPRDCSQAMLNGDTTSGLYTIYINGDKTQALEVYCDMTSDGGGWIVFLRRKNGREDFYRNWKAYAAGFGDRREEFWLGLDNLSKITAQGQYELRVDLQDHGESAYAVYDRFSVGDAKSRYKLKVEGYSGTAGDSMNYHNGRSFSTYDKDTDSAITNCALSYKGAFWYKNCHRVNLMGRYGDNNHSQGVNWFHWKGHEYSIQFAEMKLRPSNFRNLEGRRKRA
UniProt P10148, residues 24-148: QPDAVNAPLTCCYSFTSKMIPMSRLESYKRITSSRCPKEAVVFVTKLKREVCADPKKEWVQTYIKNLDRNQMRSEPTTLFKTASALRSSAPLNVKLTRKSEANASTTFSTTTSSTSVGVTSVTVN

- binding [1]: binds
- binding [2]: no binding
Substance: Mouse CCL2 (from UniProt P10148 24-148) (ligand)
